These are yes or no findings as the source states them, for the method shown. In cells and extracts the contact can be indirect. Some binding calls cover weakened binding; strength is not graded here. Tags and fused reporters may be left off the sequences shown.

Sequences of proteins named here, by UniProt entry; tags and fusion partners are left off.
UniProt P21333: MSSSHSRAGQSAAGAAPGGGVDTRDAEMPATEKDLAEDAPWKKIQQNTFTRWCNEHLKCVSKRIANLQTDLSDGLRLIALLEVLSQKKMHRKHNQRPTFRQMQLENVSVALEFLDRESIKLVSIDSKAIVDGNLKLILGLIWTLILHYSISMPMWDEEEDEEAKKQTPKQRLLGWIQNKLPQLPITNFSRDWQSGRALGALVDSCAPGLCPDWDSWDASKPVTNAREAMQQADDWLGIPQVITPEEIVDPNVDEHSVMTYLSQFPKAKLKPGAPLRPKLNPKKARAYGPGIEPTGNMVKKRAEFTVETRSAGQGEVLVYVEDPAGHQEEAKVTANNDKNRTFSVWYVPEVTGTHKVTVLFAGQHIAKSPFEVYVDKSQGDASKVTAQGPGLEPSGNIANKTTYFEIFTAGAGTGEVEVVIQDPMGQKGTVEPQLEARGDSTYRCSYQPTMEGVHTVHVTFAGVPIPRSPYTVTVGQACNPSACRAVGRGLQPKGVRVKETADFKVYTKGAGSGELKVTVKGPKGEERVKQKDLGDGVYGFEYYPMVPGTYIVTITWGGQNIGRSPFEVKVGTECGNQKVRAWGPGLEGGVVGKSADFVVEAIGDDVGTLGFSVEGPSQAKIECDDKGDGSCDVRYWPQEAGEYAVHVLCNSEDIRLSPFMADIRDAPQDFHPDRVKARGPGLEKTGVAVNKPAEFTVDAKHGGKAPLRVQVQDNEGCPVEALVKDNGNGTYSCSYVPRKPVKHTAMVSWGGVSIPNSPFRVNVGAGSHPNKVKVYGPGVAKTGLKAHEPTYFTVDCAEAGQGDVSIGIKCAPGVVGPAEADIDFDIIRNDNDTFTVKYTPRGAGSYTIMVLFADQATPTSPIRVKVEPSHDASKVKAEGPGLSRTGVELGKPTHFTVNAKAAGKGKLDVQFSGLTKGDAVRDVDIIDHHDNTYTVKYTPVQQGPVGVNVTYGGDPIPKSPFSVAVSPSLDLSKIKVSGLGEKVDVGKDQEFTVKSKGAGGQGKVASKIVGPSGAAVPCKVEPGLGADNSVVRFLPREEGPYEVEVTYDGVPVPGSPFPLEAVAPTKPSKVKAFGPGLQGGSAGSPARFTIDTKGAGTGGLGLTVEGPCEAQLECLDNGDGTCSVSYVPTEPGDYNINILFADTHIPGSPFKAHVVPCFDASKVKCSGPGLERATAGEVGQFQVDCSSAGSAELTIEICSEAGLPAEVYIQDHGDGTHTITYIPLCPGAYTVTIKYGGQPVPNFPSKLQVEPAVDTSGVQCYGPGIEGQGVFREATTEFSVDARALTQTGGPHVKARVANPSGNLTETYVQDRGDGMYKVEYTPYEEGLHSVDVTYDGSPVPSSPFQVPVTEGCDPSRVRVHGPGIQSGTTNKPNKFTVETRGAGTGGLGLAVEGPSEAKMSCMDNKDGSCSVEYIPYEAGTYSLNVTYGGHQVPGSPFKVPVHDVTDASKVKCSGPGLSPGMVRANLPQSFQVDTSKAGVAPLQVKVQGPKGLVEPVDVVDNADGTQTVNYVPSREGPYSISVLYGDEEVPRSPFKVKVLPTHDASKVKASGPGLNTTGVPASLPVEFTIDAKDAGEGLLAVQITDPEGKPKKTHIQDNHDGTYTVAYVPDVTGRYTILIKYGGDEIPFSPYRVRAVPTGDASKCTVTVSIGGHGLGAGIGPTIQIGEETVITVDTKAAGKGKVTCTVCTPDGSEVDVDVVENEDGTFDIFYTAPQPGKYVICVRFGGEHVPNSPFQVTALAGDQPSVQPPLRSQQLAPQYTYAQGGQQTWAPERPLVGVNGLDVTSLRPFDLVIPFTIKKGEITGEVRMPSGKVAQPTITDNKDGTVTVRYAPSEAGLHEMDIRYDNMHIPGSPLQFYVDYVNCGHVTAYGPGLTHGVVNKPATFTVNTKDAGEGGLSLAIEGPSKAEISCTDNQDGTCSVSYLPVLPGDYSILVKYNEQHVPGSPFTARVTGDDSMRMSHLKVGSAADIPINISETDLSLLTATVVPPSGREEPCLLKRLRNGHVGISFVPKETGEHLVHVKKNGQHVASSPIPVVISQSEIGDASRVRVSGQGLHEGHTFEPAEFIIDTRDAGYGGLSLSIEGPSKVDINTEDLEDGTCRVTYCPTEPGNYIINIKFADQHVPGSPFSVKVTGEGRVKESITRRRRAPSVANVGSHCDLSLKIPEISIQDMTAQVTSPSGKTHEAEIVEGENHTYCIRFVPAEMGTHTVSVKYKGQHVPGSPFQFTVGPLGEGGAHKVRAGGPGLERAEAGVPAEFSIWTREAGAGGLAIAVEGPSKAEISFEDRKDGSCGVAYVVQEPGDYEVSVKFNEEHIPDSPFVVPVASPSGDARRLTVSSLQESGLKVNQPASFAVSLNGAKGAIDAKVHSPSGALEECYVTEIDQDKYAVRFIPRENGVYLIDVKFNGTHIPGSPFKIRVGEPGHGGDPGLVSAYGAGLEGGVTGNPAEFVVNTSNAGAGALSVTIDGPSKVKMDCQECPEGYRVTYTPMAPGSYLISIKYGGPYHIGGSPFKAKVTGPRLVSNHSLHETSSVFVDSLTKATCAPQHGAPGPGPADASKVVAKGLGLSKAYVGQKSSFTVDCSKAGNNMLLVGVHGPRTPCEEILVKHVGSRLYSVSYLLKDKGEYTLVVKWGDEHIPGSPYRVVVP

In this experiment the target is T1, LUZP1-YFP (human) (UniProt Q86V48).
T1 sequence: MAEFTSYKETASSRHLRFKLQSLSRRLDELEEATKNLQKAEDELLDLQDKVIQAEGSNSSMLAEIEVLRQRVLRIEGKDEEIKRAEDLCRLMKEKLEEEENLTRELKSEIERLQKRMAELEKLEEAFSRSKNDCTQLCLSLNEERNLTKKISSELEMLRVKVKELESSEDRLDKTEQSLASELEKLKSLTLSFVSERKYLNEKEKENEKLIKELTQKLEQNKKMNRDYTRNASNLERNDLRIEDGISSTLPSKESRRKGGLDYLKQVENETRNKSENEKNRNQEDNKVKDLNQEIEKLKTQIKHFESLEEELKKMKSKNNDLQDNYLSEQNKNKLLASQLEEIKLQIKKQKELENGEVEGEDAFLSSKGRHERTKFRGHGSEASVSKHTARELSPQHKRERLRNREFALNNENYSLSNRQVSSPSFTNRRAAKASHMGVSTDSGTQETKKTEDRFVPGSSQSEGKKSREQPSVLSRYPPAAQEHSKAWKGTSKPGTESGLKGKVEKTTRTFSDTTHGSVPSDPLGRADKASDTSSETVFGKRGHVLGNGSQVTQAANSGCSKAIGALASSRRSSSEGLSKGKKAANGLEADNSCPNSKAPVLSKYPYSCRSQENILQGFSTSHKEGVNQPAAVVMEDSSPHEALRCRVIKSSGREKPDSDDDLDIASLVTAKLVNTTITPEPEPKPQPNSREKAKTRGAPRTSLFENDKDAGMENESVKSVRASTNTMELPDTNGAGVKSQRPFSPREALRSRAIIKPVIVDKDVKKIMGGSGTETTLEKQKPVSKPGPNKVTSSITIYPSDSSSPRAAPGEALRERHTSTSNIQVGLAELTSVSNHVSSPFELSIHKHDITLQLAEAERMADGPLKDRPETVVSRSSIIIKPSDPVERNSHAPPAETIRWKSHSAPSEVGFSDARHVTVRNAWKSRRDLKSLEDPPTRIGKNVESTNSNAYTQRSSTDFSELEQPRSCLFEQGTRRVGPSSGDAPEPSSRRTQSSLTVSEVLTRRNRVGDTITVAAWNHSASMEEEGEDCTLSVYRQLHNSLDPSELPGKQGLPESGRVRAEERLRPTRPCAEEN
Nature of the experiment: pull-down.

In the case of “filamin A (FLNA) (from UniProt P21333 1-2647)”, the binding result was “binds”.

The values above are taken from article doi:10.1101/721316.
